No constants are given. Whether binding was seen depends on the method and setting. For some of these results: In cells and extracts the contact can be indirect. Some entries that bind do so weakly or less than the wild type.
How the values were obtained:
[1] = molecular target: T1, VE-cadherin extracellular repeat domain 1 (EC1) (UniProt P33151); test: SPR, immobilised cANGPTL4 (FIG. 2B)
T1 sequence (looked up): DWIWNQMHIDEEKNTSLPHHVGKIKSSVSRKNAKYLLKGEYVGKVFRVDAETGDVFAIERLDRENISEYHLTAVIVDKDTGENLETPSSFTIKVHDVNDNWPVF

Amino acid sequences for entries named in this document (tags omitted).
UniProt P05556: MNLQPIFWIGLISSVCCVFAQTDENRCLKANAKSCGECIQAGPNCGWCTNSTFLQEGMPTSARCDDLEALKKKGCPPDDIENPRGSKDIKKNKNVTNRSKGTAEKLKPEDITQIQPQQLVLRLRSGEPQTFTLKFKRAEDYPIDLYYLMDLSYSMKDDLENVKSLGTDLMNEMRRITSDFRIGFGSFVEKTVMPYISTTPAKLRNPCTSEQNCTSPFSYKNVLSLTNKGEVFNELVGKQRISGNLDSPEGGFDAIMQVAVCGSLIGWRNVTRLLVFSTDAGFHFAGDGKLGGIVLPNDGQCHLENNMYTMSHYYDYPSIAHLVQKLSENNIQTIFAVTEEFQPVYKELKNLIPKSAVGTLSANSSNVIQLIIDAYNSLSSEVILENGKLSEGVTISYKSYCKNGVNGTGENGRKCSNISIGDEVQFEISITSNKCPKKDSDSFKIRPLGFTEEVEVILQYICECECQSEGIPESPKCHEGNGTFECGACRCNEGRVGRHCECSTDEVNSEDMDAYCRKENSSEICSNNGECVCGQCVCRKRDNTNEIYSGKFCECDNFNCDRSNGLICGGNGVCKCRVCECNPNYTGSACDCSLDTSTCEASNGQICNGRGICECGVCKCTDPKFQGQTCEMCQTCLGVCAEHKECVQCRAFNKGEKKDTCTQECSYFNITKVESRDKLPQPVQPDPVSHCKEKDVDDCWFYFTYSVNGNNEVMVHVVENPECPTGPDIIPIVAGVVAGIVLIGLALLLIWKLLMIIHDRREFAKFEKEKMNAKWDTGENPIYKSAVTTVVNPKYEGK

[2] = molecular target: T2, claudin-5 first extracellular domain (ECD1) (UniProt O00501); test: SPR, immobilised cANGPTL4 (FIG. 2B)
T2 sequence (looked up): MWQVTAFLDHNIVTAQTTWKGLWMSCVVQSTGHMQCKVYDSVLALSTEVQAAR

[3] = molecular target: T3, VE-cadherin (SPR analyte) (UniProt P33151); test: figure legend: SPR sensorgrams and PLA
T3 sequence (looked up): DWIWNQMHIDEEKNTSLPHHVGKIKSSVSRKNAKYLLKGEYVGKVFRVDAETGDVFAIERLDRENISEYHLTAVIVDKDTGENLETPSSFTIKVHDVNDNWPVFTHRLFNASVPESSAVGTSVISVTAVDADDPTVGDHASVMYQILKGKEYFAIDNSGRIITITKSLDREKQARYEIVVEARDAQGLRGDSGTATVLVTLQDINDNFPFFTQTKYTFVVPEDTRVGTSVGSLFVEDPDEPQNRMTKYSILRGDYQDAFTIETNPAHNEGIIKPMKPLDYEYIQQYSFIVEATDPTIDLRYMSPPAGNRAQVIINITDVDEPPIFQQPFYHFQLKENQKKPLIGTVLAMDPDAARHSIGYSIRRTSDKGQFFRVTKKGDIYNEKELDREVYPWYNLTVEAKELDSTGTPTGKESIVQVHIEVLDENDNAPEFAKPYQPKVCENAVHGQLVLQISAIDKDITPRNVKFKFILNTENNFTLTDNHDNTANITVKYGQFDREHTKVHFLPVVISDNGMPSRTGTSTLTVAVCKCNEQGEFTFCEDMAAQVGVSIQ

[4] = molecular target: activated integrin β1 (recognised by antibody clone Huts-21) of HMVECs (human) (UniProt P05556); test: co-immunoprecipitation from lysates of rh-cANGPTL4-treated HMVECs (FIG. 5A, B)

Measured: binding

B1: recombinant human cANGPTL4 (C-terminal region of angiopoietin-like 4) (ligand, UniProt Q9BY76 186-406, looked up)
chain: RDCQELFQVGERQSGLFEIQPQGSPPFLVNCKMTSDGGWTVIQRRHDGSVDFNRPWEAYKAGFGDPHGEFWLGLEKVHSITGDRNSRLAVQLRDWDGNAELLQFSVHLGGEDTAYSLQLTAPVAGQLGATTVPPSGLSVPFSTWDQDHDLRRDKNCAKSLSGGWWFGTCSHSNLNGQYFRSIPQQRQKLKKGIFWKTWRGRYYPLQATTMLIQPMAAEAAS
notes: domain: c terminal region; the tag is not specified; also called rh-cANGPTL4; rhcANGPTL4
binds: all assays above

— patent US20140242084A1 (published 2014)
